These are yes or no findings as the source states them, for the method shown. In cells and extracts the contact can be indirect. Some results given as binding are weak or reduced against the parent protein; the word gives no strength.
Molecular target: NK2 homeobox 5 (Nkx2.5) (UniProt P52952)
Assay: co-IP; anti-Nkx2.5 antibody (sc-376565X) immobilised on AminoLink plus coupling resin (Pierce Co-IP kit); total cell protein extracts of Lenti-NC-HCT116 and Lenti-Nkx2.5-HCT116 cells in IP lysis buffer; control mouse IgG resin; eluates blotted with anti-p53

Amino acid sequences for entries named in this document (tags omitted).
UniProt P52952: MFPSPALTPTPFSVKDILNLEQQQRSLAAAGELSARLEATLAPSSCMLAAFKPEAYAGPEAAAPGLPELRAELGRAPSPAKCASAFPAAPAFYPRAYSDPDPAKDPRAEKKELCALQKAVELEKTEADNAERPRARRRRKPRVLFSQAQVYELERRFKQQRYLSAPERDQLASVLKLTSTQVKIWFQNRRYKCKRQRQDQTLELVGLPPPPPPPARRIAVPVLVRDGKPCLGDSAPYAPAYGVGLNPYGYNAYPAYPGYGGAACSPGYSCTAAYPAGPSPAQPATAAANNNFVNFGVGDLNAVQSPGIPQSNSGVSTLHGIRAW

binding: binds
Substance: tumor suppressor protein p53 (from UniProt P04637 1-393)

— paper PMC8047315
